These are yes or no findings as the source states them, for the method shown. For part of these data: Binding seen in cells or lysates may run through a third protein. Some binding calls cover weakened binding; strength is not graded here. Sequences can lack the tags named with a protein.
T1: PE15 (Rv1386) with N-terminal His tag (Mycobacterium tuberculosis H37Rv), P9WIH1
T1 chain: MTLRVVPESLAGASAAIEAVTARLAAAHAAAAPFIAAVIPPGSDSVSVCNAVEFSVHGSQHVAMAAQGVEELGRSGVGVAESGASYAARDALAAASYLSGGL

T2: PPE20 (Rv1387) with C-terminal Strep II tag (Mycobacterium tuberculosis H37Rv), P9WI23
T2 chain: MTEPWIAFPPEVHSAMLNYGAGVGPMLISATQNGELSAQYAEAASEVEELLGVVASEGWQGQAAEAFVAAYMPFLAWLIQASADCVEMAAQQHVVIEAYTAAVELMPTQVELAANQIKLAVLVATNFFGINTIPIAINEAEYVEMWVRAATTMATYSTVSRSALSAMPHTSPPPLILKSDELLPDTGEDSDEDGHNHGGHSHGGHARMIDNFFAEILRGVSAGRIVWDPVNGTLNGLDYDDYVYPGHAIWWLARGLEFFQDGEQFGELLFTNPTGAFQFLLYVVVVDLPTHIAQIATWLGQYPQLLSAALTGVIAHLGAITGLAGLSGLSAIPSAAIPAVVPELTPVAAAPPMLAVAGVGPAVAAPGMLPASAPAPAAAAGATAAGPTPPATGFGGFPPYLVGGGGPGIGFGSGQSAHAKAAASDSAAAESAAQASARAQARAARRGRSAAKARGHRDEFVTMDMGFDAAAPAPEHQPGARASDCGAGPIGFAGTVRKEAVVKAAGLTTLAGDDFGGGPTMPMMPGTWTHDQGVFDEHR


How the values were obtained:
Settings in all cases: remark: other sources report otherwise
[1] = molecular target: T1, PE15 (Rv1386) with N-terminal His tag …; test: pull-down
[2] = molecular target: T1, PE15 (Rv1386) with N-terminal His tag …; test: native gel or EMSA
[3] = molecular target: T2, PPE20 (Rv1387) with C-terminal Strep II …; test: pull-down

| Binder | binding [1] | binding [2] | binding [3] |
| --- | --- | --- | --- |
| PPE20 (Rv1387) with C-terminal Strep II tag, P9WI23 1-539 (protein) MTEPWIAFPPEVHSAMLNYGAGVGPMLISATQNGELSAQYAEAASEVEELLGVVASEGWQGQAAEAFVAAYMPFLAWLIQASADCVEMAAQQHVVIEAYTAAVELMPTQVELAANQIKLAVLVATNFFGINTIPIAINEAEYVEMWVRAATTMATYSTVSRSALSAMPHTSPPPLILKSDELLPDTGEDSDEDGHNHGGHSHGGHARMIDNFFAEILRGVSAGRIVWDPVNGTLNGLDYDDYVYPGHAIWWLARGLEFFQDGEQFGELLFTNPTGAFQFLLYVVVVDLPTHIAQIATWLGQYPQLLSAALTGVIAHLGAITGLAGLSGLSAIPSAAIPAVVPELTPVAAAPPMLAVAGVGPAVAAPGMLPASAPAPAAAAGATAAGPTPPATGFGGFPPYLVGGGGPGIGFGSGQSAHAKAAASDSAAAESAAQASARAQARAARRGRSAAKARGHRDEFVTMDMGFDAAAPAPEHQPGARASDCGAGPIGFAGTVRKEAVVKAAGLTTLAGDDFGGGPTMPMMPGTWTHDQGVFDEHR | binds | binds |  |
| PE15 (Rv1386) with N-terminal His tag, P9WIH1 1-102 (protein) MTLRVVPESLAGASAAIEAVTARLAAAHAAAAPFIAAVIPPGSDSVSVCNAVEFSVHGSQHVAMAAQGVEELGRSGVGVAESGASYAARDALAAASYLSGGL |  |  | binds |

Reference: paper doi:10.1101/2022.05.30.494056
